From patent US20180360972A1, “THERAPEUTIC COMPOUNDS” (REGENTS OF THE UNIVERSITY OF MINNESOTA, priority 2017, published 2018)
Entries after “also recorded” stand apart in the source; their conditions may differ. Part of at least one peptide drawing is inferred or uncertain, most often the ends.

Amino acid sequences for entries named in this document (tags omitted).
UniProt P32245, whole entry: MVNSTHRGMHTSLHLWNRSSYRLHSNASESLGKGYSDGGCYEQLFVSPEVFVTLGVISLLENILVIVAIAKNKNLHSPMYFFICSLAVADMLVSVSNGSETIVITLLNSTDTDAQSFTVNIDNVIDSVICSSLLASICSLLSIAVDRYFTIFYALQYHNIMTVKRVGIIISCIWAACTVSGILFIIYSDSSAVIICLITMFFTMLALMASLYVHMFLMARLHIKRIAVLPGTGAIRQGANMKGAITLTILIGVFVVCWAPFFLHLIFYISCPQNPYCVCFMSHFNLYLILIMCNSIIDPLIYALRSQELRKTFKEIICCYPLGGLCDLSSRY

How the values were obtained:
[1] = target: T1, hMC4R (Homo sapiens, UniProt P32245); test: AlphaScreen cAMP functional bioassay, hMC4R; format: cell-based; conditions: vs monovalent tetrapeptide CJL-1-14
T1 construct: Flag; expressed in transfected cells
Description: Upon agonist stimulation, melanocortin receptors are known to signal through a Gαs-protein mediated signaling pathway that results in intracellular cAMP accumulation.
Stable populations were selected for using G418 selection (0.7-1.0 mg/mL) and used in bioassays unless indicated otherwise. In vitro experimental ligands were dissolved to a 10^−2 M stock in DMSO and stored at −20° C. Subsequent dilutions were performed in each assay's specific buffer to achieve the final concentration in the well. The ligands were assayed as TFA salts.
AlphaScreen cAMP Functional Bioassay
The AlphaScreen® assay was performed as described by manufacturer.
Cells were removed from plates using Gibco® Versene solution and pelleted by centrifugation (Sorvall Super T21 high speed centrifuge, swinging bucket rotor) at 800 rpm for five minutes. […] A 10 μL aliquot of cell suspension was counted manually using a hemocytometer after addition of Trypan blue dye (BioRad). […]
Meanwhile, a biotinylated cAMP/streptavidin donor bead working solution was made by adding biotinylated cAMP (1 Unit/well, AlphaScreen®) and streptavidin donor beads (1 Unit/well, AlphaScreen®) to a lysis buffer (10% Tween-20, 5 mM HEPES buffer solution [1M, Gibco®], 0.1% bovine serum albumin [BSA] in Milli-Q water, pH=7.4). […] The plate was then read on an EnSpire™ Alpha plate reader using a pre-normalized assay protocol set by the manufacturer. […]

[2] = test system: male wild type mice; format: in vivo; conditions: nocturnal paradigm; 2.5 and 5 nmol CJL-1-124
Description: (§1) All experiments were performed in accordance with the Institutional Animal Care and Use Committee (IACUC) at the University of Minnesota. Female and male littermates with mixed background from C57BL/6J and 129/Sv inbred strains were 8 weeks old at the time of surgeries. Mice were individually housed after surgeries and for the remainder of the experiment. Mice were maintained on a 12 hr light/dark cycle (Lights off was at 11:59 AM) in a temperature controlled room (23-25° C.). In the nocturnal feeding paradigm, mice had free access to normal chow (Harlan Teklad 2018 Diet: 18.6% crude protein, 6.2% crude fat, 3.5% crude fiber, with energy density of 3.1 kcal/g). […] Mice had free access to tap water throughout all the experiments. The cannula placement validation studies and conventional cage studies were performed in standard mouse polycarbonate conventional cages provided by University of Minnesota's Research Animal Resources (RAR). Weekly cage changes were conducted by lab research staff.
Mice were anesthetize with a mixture of ketamine (100 mg/kg) and xylazine (5 mg/kg) and were positioned in a stereotaxic apparatus (David Kopf Instruments). […]
Each mouse was administered hPYY and saline on different days following a crossover design in the nocturnal feeding paradigm. […] Food intake and body weight were manually measured 2, 4, and 6 hours after hPYY or saline administration. […]

[3] = test system: male MC3RKO mice; test: ICV administration, TSE metabolic cages, male MC3RKO mice; format: in vivo; conditions: nocturnal paradigm
Description: as §1
Mice were anesthetize with a mixture of ketamine (100 mg/kg) and xylazine (5 mg/kg) and were positioned in a stereotaxic apparatus (David Kopf Instruments). A 26-gauge cannula (Cat# 81C315GS4SPC; PlasticsOne, Roanoke, Va.) was inserted in the lateral cerebral ventricle at the coordinates 1.0 mm lateral and 0.46 mm posterior to bregma and 2.3 mm ventral to the skull (Franklin, K. B. J. & Paxinos, G. The Mouse Brain in Stereotaxic Coordinates. (Academic Press, 1997)).
As stated above, conventional cage experiments were performed in standard mouse polycarbonate conventional cages. […] All experiments followed a cross-over paradigm in which the mouse received saline and compound on different days with a washout period in between each treatment. Statistical analysis was performed using SPSS V23 software (IBM) using a multivariate general linear model followed by a Bonferroni's post hoc test. Results are presented as Mean±SEM. Statistically significant was considered p<0.05.
In order to more clearly understand the effects of the biased agonism at the MC4R, the effects of administration of CJL-5-58 was explored in MC3R knockout (KO) mice and MC4RKO mice. […] Adverse reactions included two mice dying after the 5 nmol dose. […] The large error in activity may serve as an indication of toxicity. It is currently difficult to decipher whether the adverse reactions observed are due to paradigm effects, genotype difference, or compound toxicity.

[4] = 2.5 nmols or 5.0 nmols CJL-1-124

Structure (SMILES)	fold increase in cAMP potency compared to CJL-1-14 [1] [fold]	RER vs saline [2]	RER vs saline ([3]; 2.5 nmol)	energy expenditure vs saline ([3]; 2.5 nmol)	food intake vs saline [3, 4]	water intake vs saline [3, 4]	energy expenditure vs saline ([3]; 5 nmol)	RER vs saline ([3]; 5 nmols (dose not restated for CJL-5-58))
CC(=O)N[C@@H](Cc1c[nH]cn1)C(=O)N[C@H](Cc1ccccc1)C(=O)N[C@@H](CCCNC(=N)N)C(=O)N[C@@H](Cc1c[nH]c2ccccc12)C(=O)NCCCOCCOCCOCCCNC(=O)COCC(=O)N[C@@H](Cc1c[nH]cn1)C(=O)N[C@H](Cc1ccccc1)C(=O)N[C@@H](CCCNC(=N)N)C(=O)N[C@@H](Cc1c[nH]c2ccccc12)C(N)=O [CJL-1-87]	3	–	–	–	–	–	–	–
CC(=O)N[C@@H](Cc1c[nH]cn1)C(=O)N[C@H](Cc1ccc2ccccc2c1)C(=O)N[C@@H](CCCNC(=N)N)C(=O)N[C@@H](Cc1c[nH]c2ccccc12)C(=O)NCCCOCCOCCOCCCNC(=O)COCC(=O)N[C@@H](Cc1c[nH]cn1)C(=O)N[C@H](Cc1ccccc1)C(=O)N[C@@H](CCCNC(=N)N)C(=O)N[C@@H](Cc1c[nH]c2ccccc12)C(N)=O [CJL-1-124, Ac-His-DNal(2′)-Arg-Trp-(PEDG20)-His-DPhe-Arg-Trp-NH2]	–	dose dependent decrease in RER at the first 2 hours after compound administration	significantly increased from 16-17, 19, 22, and 24 hours	significant reduction in energy expenditure was observed 1 and 2 hours after administration; also recorded: significant increase at 19 hours after compound administration	no significant changes	no significant changes	significantly reduced 1-6 hours after administration; also recorded: significant increase in energy expenditure was observed 15 hours after compound administration	significantly increased from 15-21 and 24 hours
